PubChem BioAssay AID504804 | Drosophila RNAi Screening Center | 2011

Aim: 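Fly genes whose loss lessens doxorubicin-driven cell death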 (primary screen)
Cells: Drosophila Kc cells
Reagents: long dsRNA against Drosophila genes, 0.5 µg dsRNA per well
Duration: 96 h (48 h knock-down, then 48 h drug)
Challenge: doxorubicin 5 µg/ml for 48 h, added 48 h after dsRNA
Measured: 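Luminescent ATP counts per replicate, not normalised, reflecting viable cells after 48 h dsRNA knock-down followed by 48 h of 5 µg/ml doxorubicin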
Direction: raw ATP luminescence: higher = more viable cells, protection from doxorubicin
Call rule: 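Active when both duplicate wells lie at least 2 SD above the plate mean and protection is confirmed by rescreening and independent dsRNAs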
The deposit covers about 19,000 reagents; shown is an unselected part of those with a known target gene and a result. In the full data, 47 (0.25%) are marked active. 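Signals are raw, not normalised; exact z-scores behind calls not deposited; actives needed confirmation, so some wells reaching 2 SD are inactive.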 The numbers tell different reagents against one gene apart. Names joined by + are all predicted targets of the reagent. No sequences are given here.

no.	gene	reagent no.	raw ATP luminescence, replicate 1	raw ATP luminescence, replicate 2	activity call
1	Rcd-1r + CG13102	1	43087	80763	inactive
2	ND4 (retired record)	1	3.24e5	2.85e5	inactive
3	Osi9	1	1.86e5	1.82e5	inactive
4	Mad	1	35853	34647	inactive
5	caup	1	50197	39910	inactive
6	Gel	1	17927	19350	inactive
7	Dred	1	79753	75290	inactive
8	Dred	2	1.91e5	2.15e5	inactive
9	CG17999	1	75467	63630	inactive
10	sosie	1	53310	56850	inactive
11	Jon99Cii	1	54590	38190	inactive
12	CG9825	1	49817	56730	inactive
13	mRpS9	1	76813	66503	inactive
14	mRpS9	2	71063	58757	inactive
15	Kif3C	1	62680	60690	inactive
16	Kif3C	2	57900	74750	inactive
17	Prx6c + CG12896 + Prx6b	1	49640	76467	inactive
18	sand	1	42283	77607	inactive
19	pio	1	88990	67437	inactive
20	CG31681	1	2.82e5	2.80e5	inactive
21	Nup62	1	52297	60410	inactive
22	Mst84B	1	62853	67230	inactive
23	sinah	1	61163	42233	inactive
24	CG6978	1	63570	59770	inactive
25	CG33770	1	62803	42183	inactive
26	Cpr97Ea	1	51870	38930	inactive
27	Crtc	1	36787	33240	inactive
28	CG3038	1	63210	55730	inactive
29	CG6340	1	2.37e5	2.20e5	inactive
30	CG3817	1	56817	34927	inactive
31	Pex19	1	1.21e5	79840	inactive
32	laza	1	31523	23153	inactive
33	CG4822	1	93287	76710	inactive
34	Rbp1	1	55600	21023	inactive
35	Pdi	1	47450	42027	inactive
36	Ctf4	1	67160	57137	inactive
37	CG16926	1	54783	66097	inactive
38	nenya	1	1.80e5	2.15e5	inactive
39	COX6AL2	1	66887	43280	inactive
40	CG32795	1	56710	40790	inactive
41	CG32795	2	59390	51410	inactive
42	CG10631	1	92840	64507	inactive
43	Fst	1	84453	20767	inactive
44	nSyb	1	65277	79597	inactive
45	CR16735	1	55363	49817	inactive
46	CG5162	1	2.97e5	2.92e5	inactive
47	UQCR-Q	1	44463	43987	inactive
48	Mal-A5	1	72570	66047	inactive
49	snky	1	73057	80893	inactive
50	CG9109	1	1.04e5	67790	inactive
51	CG7492	1	30663	30973	inactive
52	cv	1	38600	50680	inactive
53	CG32533	1	3.01e5	3.09e5	inactive
54	Cht5	1	53233	36430	inactive
55	Ten-m	1	78963	56570	inactive
56	Ten-m	2	75407	68787	inactive
57	CG1698	1	51810	40387	inactive

3 entries from above, arranged by “raw ATP luminescence, replicate 1”, low to high:
gene	reagent no.	raw ATP luminescence, replicate 1	raw ATP luminescence, replicate 2	activity call
Cht5	1	53233	36430	inactive
Ten-m	1	78963	56570	inactive
CG32533	1	3.01e5	3.09e5	inactive
